# Reference: paper PMC12040169 (PLOS Biology, 2025)
# This is one part of the list.
# Tested on: T1, CTL2-GFP (C. trachomatis L2/434/Bu, GFP-expressing)
# T1 construct: L2/434/Bu, GFP-expressing
# Set-up: species or system HeLa; Intracellular C. trachomatis growth in HeLa cells, bulk GFP fluorescence relative to DMSO
# Settings: bulk GFP, single well; 28.5 h, 10 µM; inhibitor
row,SMILES,% of control remaining [%]
1,O=C(C1CCC1)N1CCC(c2nnc(-c3ccsc3)o2)CC1 [CBK283405],98.4131
2,O=C(Nc1cccnc1)c1cnc(-c2ccc(Cl)cc2)c(-c2cccnc2)c1 [CBK037568],98.6822
3,CC1(C)C=Cc2cc(/C(N)=N/O)ccc2O1 [CBK006095],118.517
4,CN1CC(=O)N(CC(=O)N2CC=C(c3ccccc3)CC2)c2ccccc2C1=O [CBK294433],133.467
5,O=C(O)c1cc(C(=O)O)cc(N2C(=O)C3C4C=CC(C4)C3C2=O)c1 (stereo not shown) [CBK261193],100.017
6,CC(C)c1ccc(NC(=O)CSc2nnc(Cc3cccc4ccccc34)o2)cc1 [CBK267371],129.946
7,CN1C(=O)CC2(C1=O)C(=O)N(Cc1ccc3ccccc3n1)c1ccc(Cl)cc12 (stereo not shown) [CBK075494],95.531
8,O=[N+]([O-])c1ccc(CN2CCC(N3CCN(CCO)CC3)CC2)cc1 [CBK264621G],118.977
9,COCc1cc(C[C@@H]2C[C@H](NC(=O)C(C)(C)C)C2(C)C)no1 [CBK289251],137.118
10,CC(O)CNc1nccnc1-c1ccc(S(C)(=O)=O)cc1 (stereo not shown) [CBK037669],113.167
11,COCCN(Cc1cnn(C)c1)C(=O)c1nc2ccccn2c1F [CBK306892],133.932
12,COc1cc2c(cc1OC)C(C)N(S(=O)(=O)c1cn(C)cn1)CC2 (stereo not shown) [CBK057314],134.928
13,Cc1cc(N2CCCC(C(=O)N3CCOCC3)C2)nc(N)n1 (stereo not shown) [CBK305985],120.39
14,Cc1ccn(CCNC(=O)C2CCC(=O)N(CCc3ccccn3)C2)n1 (stereo not shown) [CBK306998],76.6957
15,O=C(CN1C(=O)c2ccccc2C1=O)N1CCN(Cc2ccc3c(c2)OCO3)CC1 [CBK074846],93.3197
16,CN(CCN1CCCC1)c1nccc(N2CCN[C@H]3CS(=O)(=O)C[C@H]32)n1 [CBK306692],126.016
17,COc1cccc(CCC(=O)n2ccn(-c3ccc(N(C)C)cc3)c2=O)c1 [CBK106609],122.525
18,CN1C(=O)c2ccccc2OCCCCC[C@H]2NCCC[C@H]21 [CBK292075],111.571
19,Cn1nc(C(C)(C)C)c2cc(C(=O)N3CCCc4occc4C3)cnc21 [CBK304713],118.274
20,COc1ccc(C(NC(=O)COc2c(Cl)cc(C(=O)O)cc2Cl)C(C)C)cc1 (stereo not shown) [CBK295344],152.738
21,CCn1nc(C)c(C2NC(=O)c3ccccc3N2)c1C (stereo not shown) [CBK288214],118.939
22,COc1ccc(CCNc2ncnc3sc4c(c23)CCCCC4)cc1OC [CBK074384],110.979
23,Cc1ccc(NS(=O)(=O)c2cccc(C(=O)NS(=O)(=O)c3ccc(F)cc3F)c2)cc1 [CBK297776],152.596
24,O=C(CCN1CCOCC1)NNC(=O)Nc1cccc(C(F)(F)F)c1 [CBK269017],86.9436
25,O=C(C1CCCC1)N1CCc2nc(-c3ccccc3)[nH]c(=O)c2C1 [CBK282331],109.9
26,CC(C)Oc1ccccc1-c1nnc(SCC(=O)O)[nH]1 [CBK262702],121.184
27,Cc1cc(-c2nccnc2NCc2cccc(Cl)c2)cc(C)c1O [CBK036646],117.334

# A few values from the entries so far.
# % of control remaining [%] with COCCN(Cc1cnn(C)c1)C(=O)c1nc2ccccn2c1F [CBK306892] reads 133.932
# % of control remaining [%] with O=C(CN1C(=O)c2ccccc2C1=O)N1CCN(Cc2ccc3c(c2)OCO3)CC1 [CBK074846] reads 93.3197
# % of control remaining [%] with CN(CCN1CCCC1)c1nccc(N2CCN[C@H]3CS(=O)(=O)C[C@H]32)n1 [CBK306692] reads 126.016
# % of control remaining [%] with O=C(O)c1cc(C(=O)O)cc(N2C(=O)C3C4C=CC(C4)C3C2=O)c1 (stereo not shown) [CBK261193] reads 100.017

# (further entries)

row,SMILES,% of control remaining [%]
1,O=C(/C=C/c1ccccc1[N+](=O)[O-])NCCN1CCOCC1 [CBK265596],100
2,N#Cc1[nH]nnc1-c1ccc(OC(F)(F)F)cc1 [CBK017386],125.622
3,Oc1cccc(Sc2cc(C(F)(F)F)ccn2)c1 [CBK115273],124.298
4,Cc1ccc2c(c1)CN(C(=O)C1CC1C)CC1(CCN(C)CC1)O2 (stereo not shown) [CBK284833],111.021
5,CC1(CNC(=O)c2cc(-c3cccc(F)c3)no2)COC1 [CBK281751],149.675
6,CS(=O)(=O)Nc1ccc2c(O)c(C(=O)NCc3ccc(Cl)cc3)c(=O)[nH]c2c1 [CBK017559],134.145
7,CC(C)(C)OC(=O)N1CCCC1C1COc2ccccc2C1=O (stereo not shown) [CBK281579],131.182
8,N#CCCN(C(=O)NCCN1CCOCC1)C1CCCCC1 [CBK156357],93.0366
9,O=C(Nc1ncccc1Cl)c1ccc(F)cc1 [CBK288215],116.745
10,O=C(N/N=C/c1cccc(Oc2ccccc2)c1)c1ccncc1 [CBK261955],119.583
11,COCCOCCCC(=O)OCC1Cc2cc(F)ccc2O1 (stereo not shown) [CBK304886],86.313
12,CNS(=O)(=O)c1ccc(NC(=O)c2cc(-c3ccc4c(c3)OCO4)nc3ccccc23)cc1 [CBK267735],134.152
13,O=C(Cn1nc(-c2cc3c(s2)CCC3)oc1=O)NC1CC1 [CBK283800],96.0988
14,COc1ccc(N(CC(=O)Nc2c(F)cccc2F)S(=O)(=O)c2ccccc2)cc1 [CBK266883],127.888
15,O=C(CSc1nc2ccccc2n1Cc1ccccc1)N/N=C/c1ccco1 [CBK263174],131.124
16,Nc1nc2ccc(-c3nc4ccccc4o3)cc2s1 [CBK287846],86.3396
17,CCOC(=O)Cc1cc(O)nc(NC(=N)Nc2ccc(C)cc2C)n1 [CBK264986],118.277
18,CCOC(=O)c1cc(C(C)C)sc1NC(=O)C1C2C=CC(C2)C1C(=O)O (stereo not shown) [CBK265417],114.119
19,CN1CCN(NC(=O)COc2ccc(-c3ccccc3)cc2)CC1 [CBK268117],89.2031
20,COc1ccc(Cl)cc1NC(=O)C1CCCN1S(=O)(=O)c1ccc(F)cc1 (stereo not shown) [CBK069866],101.668
21,N#Cc1ccc(C(=O)NCC2(N3CCOCC3)CCSC2)cc1 (stereo not shown) [CBK305602],129.056
22,COc1ccc(NC(=O)NC(=O)c2ccc(Cl)cc2)c(OC)c1 [CBK269462],163.561
23,COc1ccc(Nc2cc(-c3ccc(CNC(=O)OC(C)(C)C)cc3)ncn2)c(OC)c1 [CBK090757],147.428
24,CCN1C(=O)CC2(C1=O)C(=O)N(CCCN(C)S(C)(=O)=O)c1ccccc12 (stereo not shown) [CBK075519],143.951
25,Cc1nnnn1-c1cc(NC(=O)NCCN2CCOCC2)ccc1F [CBK306246],133.289
26,CCc1nnc(SCC(=O)Nc2ccc(CN3CCOCC3)cc2)[nH]1 [CBK306097],98.9257
27,O=C(CN1CCCCC1)Nc1ccc(NC(=O)CN2CCCCC2)c(Cl)c1 [CBK264173],129.775

row,SMILES,% of control remaining [%]
1,CC1Cc2cc(C(=O)N3CCCCC3CN(C)C)ccc2O1 (stereo not shown) [CBK282193],121.021
2,Cc1[nH]c(=O)[nH]c(=O)c1Cc1ccccc1 [CBK113244],97.0959
3,Cc1[nH]c2ccccc2c1C(CC(=O)c1ccc(Br)cc1)C(=O)O (stereo not shown) [CBK269480],142.701
4,O=C(NC(=S)Nc1ccc(OCc2ccccc2)cc1)c1cccnc1 [CBK266224],145.543
5,COc1cc(C)nc(N2CCN(C(=O)CCc3ccsc3)CC2)n1 [CBK304572],113.47
6,COC(=O)c1sc2ncccc2c1NS(=O)(=O)c1cc(Br)c(Cl)s1 [CBK049973],109.093
7,COc1cnc(-c2cnn(C)c2)c(NC(=O)c2cc(C)oc2C)n1 [CBK145218],126.832
8,O=S(=O)(Nc1ccc2ncccc2c1)c1ccc(OC(F)(F)F)cc1 [CBK045339],104.07
9,Cc1nn(CCNC(=O)C2CC(=O)N(CC(C)C)C2)c(C)c1C (stereo not shown) [CBK281630],142.917
10,COc1cccc(/C=C2/SC(=S)N(C)C2=O)c1OCCCOc1ccc(C)cc1C [CBK264446],123.865
11,CN(CC1CCN(C(=O)OC(C)(C)C)CC1)c1ccnc(-c2ccncc2)n1 [CBK166064],126.798
12,CN1CCc2nc(SCC(=O)NC(C)(C)C)c(C#N)cc2C1 [CBK267445],139.254
13,CC(C)NC(=O)N[C@H]1CCN2C(=O)c3cc(-c4ccccc4F)ccc3NC(=O)[C@H]12 [CBK289335],130.44
14,N#Cc1cccnc1N1CCC(NC(=O)c2cccnc2)CC1 [CBK304283],83.1417
15,Cc1cccn2cc(C(=O)NC(C)CN3CCCC3)nc12 (stereo not shown) [CBK281714],97.3494
16,Cc1nnnn1C(Cc1cccc(F)c1)C(=O)N1CC(C)CC(C)C1 (stereo not shown) [CBK298262],146.437
17,Cc1ccc(C2c3c(O)n[nH]c3CC(C)(O)C2C(=O)OCc2ccccc2)cc1 (stereo not shown) [CBK269417],154.359
18,CCOc1ccc(-c2ccc(C#N)c(=S)[nH]2)cc1 [CBK288470],149.591
19,COc1cc2nc(N3CCC4(CCN(C(=O)C(c5ccccc5)C(C)C)C4)C3)nc(N)c2cc1OC (stereo not shown) [CBK160790],56.7354
20,CCOC(=O)NC(Nc1cccc(C)n1)(C(F)(F)F)C(F)(F)F [CBK261343],115.553
21,O=C(CCn1c(C(F)F)cc2cccnc21)N1CCCCCC1 [CBK284983],112.98
22,FC(F)(F)c1ccnc(OCCN2CCNCC2)n1 [CBK113297],150.803
23,CN(C)Cc1ccccc1-n1ncc(CN2CCS(=O)(=O)CC2)n1 [CBK112877],96.6533
24,Cc1nc2ccc(C(=O)N3CCN(C4CCCCC4)C(=O)C3)cc2[nH]1 [CBK282131],139.049
25,Oc1ccc(/C=N/c2ccc(O)c(-c3nc4ccccc4s3)c2)cc1O [CBK262473],125.294
